These are yes or no findings as the source states them, for the method shown. Some binding calls cover weakened binding; strength is not graded here.

The target of experiment [1] is HER2 on SKBR3 cells (UniProt P04626). Briefly: FACS. (Flow cytometry measures light scatter and fluorescence of single cells or particles in a stream.)
Experiment [2] shares this target. Nature of the experiment: FACS, Alexa 647 labeled antibody on SKBR3 cells.

B1: CDR-grafted meditope-enabled trastuzumab (trastuzumab-like CDRs on a cetuximab-like framework) (antibody, V domains shown)
VH: QVQLKQSGPGLVQPSQSLSITCTVSGFNIKDTYIHWVRQSPGKGLEWLGRIYPTNGYTRYNTPFTSRLSINADNSKNQVFFKMNSLQSNDTAIYYCARWGGDGFYAMDYWGQGTLVTVSS
VL: DILLTQSPVILSVSPGERVSFSCRASQDINTAIAWYQQRTNGSPRLLIYSASFLYSGVPSRFSGSRSGTDFTLSINSVESEDIADYYCQQHYTTPPTFGAGTKVEIKR
For the molecule B1, the binding result with HER2 on SKBR3 cells [1] and with HER2 on SKBR3 cells [2] was “binds” in each case.

These data come from patent US20140113348A1.
